Data: the odorant receptor screen of Mainland et al. (2015)
Several values for one entry are separate records, joined by “and”; a condition that tells them apart may be missing. Equal entries are not always repeated. This is one part of the list. Single wells; the ratio to wells without odorant was worked out here, and repeats agree poorly.

Tests used:
Assay in all cases: odorant receptor activation (CRE luciferase / Renilla) (fold of no-odor wells); higher = more activation
Details in all cases: 100 µM
OR7C2 clone 1292 = test system: OR7C2 clone 1292
OR7D2 clone 1405 = test system: OR7D2 clone 1405
OR7D4 clone 1298 = test system: OR7D4 clone 1298
OR7E24 P242S clone 1314 = test system: OR7E24 P242S clone 1314
OR7G1 clone 1295 = test system: OR7G1 clone 1295
[1] = test system: OR7G2 V263A/F281V clone 1312
OR7G2 clone 1475 = test system: OR7G2 clone 1475
OR7G3 clone 1297 = test system: OR7G3 clone 1297
OR8A1 clone 1503 = test system: OR8A1 clone 1503
OR8B12 clone 1731 = test system: OR8B12 clone 1731

SMILES	odorant receptor activation (OR7C2 clone 1292)	odorant receptor activation (OR7D2 clone 1405)	odorant receptor activation (OR7D4 clone 1298)	odorant receptor activation (OR7E24 P242S clone 1314)	odorant receptor activation (OR7G1 clone 1295)	odorant receptor activation [1]	odorant receptor activation (OR7G2 clone 1475)	odorant receptor activation (OR7G3 clone 1297)	odorant receptor activation (OR8A1 clone 1503)	odorant receptor activation (OR8B12 clone 1731)
C=CCc1ccc(O)c(OC)c1 [eugenol]	1.08 and 1.04	1.59 and 1.36	3.88 and 1.42	2.63 and 1.26	2.77 and 1.28	0.554 and 1.18	1.25 and 0.929 and 0.943	1.22 and 1.39	1.29 and 1 and 1.55	1.03
CC=Cc1ccc(O)c(OC)c1 [isoeugenol]	1.18 and 1.13	1.18	0.994 and 1.5	1.36 and 1.2	0.807 and 1.06	1.54 and 0.994	1.24 and 2.24	0.826 and 1.17	1.59 and 2.08	6.4
CCCCO [1-butanol]	1.06	0.705	0.976	0.715	1.16	0.775	1.19	0.611	1.08	0.744
CCCCCCOC(=O)CCC [hexyl butyrate]	1.29 and 1.21	0.71	1.09 and 1.03	0.863 and 0.983	0.948 and 0.965	0.884 and 0.556	1.38 and 0.942	0.862 and 0.708	1.22 and 0.786	0.936
CC(C)CCC(=O)O [4-methylvaleric acid]	1.45	0.699	0.825	1.44	1.14	1.1	0.766	0.746	0.828	0.8
CC(C)=CCCC(C)=CC=O [citral]	0.841	0.355	1.22	0.784	1.34	1.05	1.23	1.24	1.48	1.09
CCCCCCCCCC=O [decyl aldehyde]	1.18	1.27	1.03	1.2	1.42	1.22	1.25	1.05	1.55	0.864
O=C1CCCCCCCCCCCC(=O)OCCO1 [ethylene brassylate]	1.32	1.53	1.21	1.46	1.39	1.13	1.15	1.25	1.22	0.978
CCCCCCCCOC(C)=O [octyl acetate]	1.47	0.723	1.27	1.09	1.09	1.07	0.992	1.11	0.961	0.655
CCCCCCC=O [heptaldehyde]	0.72 and 0.703 and 1.17	1.11 and 0.689	0.661 and 0.822 and 0.985	1.43 and 1.04 and 1.11	0.442 and 0.918 and 1.15			0.691 and 0.934 and 0.825		0.834
COc1ccccc1O [guaiacol]	0.845 and 1.32	0.718	0.982 and 0.918	1.05	0.978 and 0.876	1.22 and 0.875	0.943 and 1.17	0.783 and 0.882	1.01 and 0.992	0.852
CCCCCC(=O)O [caproic acid]	0.665	0.315	0.81	0.738	0.861	0.661	1	0.976	1.2	0.661
CC(=O)OC(C)(C)C1CC=C(C)CC1 (stereo not drawn) [terpinyl acetate]	0.706	0.958	0.89	0.816	0.775	0.898	0.739	0.839	0.959	0.843
C=C(C)C1CCC2=CC(=O)CC(C)C2(C)C1 (stereo not drawn) [amyl laurate]										2.04
C=CC(C)(O)CCC=C(C)C (stereo not drawn) [linalool]	1.12	0.851	0.906	0.813	1.23	0.804	1.2	0.865	0.784	1.1
